Results are given as percent effect.
The controls that fix the scale are not given in the record; negative values are as filed.
The compounds are a random part of those screened.
Two or more numbers in one place are separate tests of the same structure; such repeats can differ widely.

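Viability assay of Plasmodium falciparum sporozoites; the read-out is not stated. The concentration is filed as 10 mM, unlikely as a test dose, so the dose is not known. Higher reads as lower viability (inferred: compounds with an IC50 in retests scored well above the rest). Strong results were mostly tested again. About 34,000 compounds were tested under these conditions; 0.84% (about 280) showed 50% or more at least once.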

Compound | effect
COc1ccc(OCc2cc(C(=O)N3CC=CC3)n[nH]2)c(Cl)c1 | -12.25
CN(C)CCn1c([C@@H]2CCCO2)cc2cccnc21.Cl | 3.991
Cc1oc(-c2ccco2)nc1CC(=O)N1CCN(CC(C)(C)O)CC1 | -22.89
CN(C)CC1CN(Cc2coc(-c3cccc(F)c3)n2)CCO1 (centres unmarked) | 7.672
CN(C)C(=O)NC1COC2(CCN(Cc3nccn3C)CC2)C1 (centres unmarked) | -4.358
[H][C@]12CCN(Cc3cccc(C)c3)[C@@]1([H])C[C@H](C(=O)N1CCN(C)CC1)O2 | 9.675
O=C(O)C(F)(F)F.[H][C@@]12CCN(Cc3ccsc3)C[C@]1([H])[C@H](C(=O)Nc1cnccn1)CCO2 | 0.08591
CCS(=O)(=O)N1CC[C@]2(C[C@@H](OCC3CC3)CO2)C1 | 0.4614
Cc1nc(Nc2cnccn2)cc(C2CCCN2C2CCOCC2)n1 (centres unmarked) | 8.259
O=C(O)C(F)(F)F.[H][C@@]12CCN(S(C)(=O)=O)[C@@]1([H])CCN2Cc1ccc2c(c1)OCO2 | -6.33
O=C(O)C(F)(F)F.O=C(O)C(F)(F)F.[H][C@@]12CCN(Cc3ccncc3)C[C@@]1([H])O[C@H](C(=O)NC1CCC1)C2 | 8.117
O=C(O)C(F)(F)F.O=C(c1ccncc1F)N1CCc2onc(COc3cccnc3)c2C1 | 1.632
Cn1cc(CN2CCCCC2c2ccc(-c3cccc(Cl)c3)nc2)cn1 (centres unmarked) | -11.29
CC(=O)N1CCN(C(=O)NCc2ccc(Cl)s2)CC1 | 8.075
O=C(CCNS(=O)(=O)c1ccccc1)NCc1ccoc1 | -2.361
CS(=O)(=O)N1CCC(c2nnc3ccc(C(=O)N4CCCC4)cn23)C1 (centres unmarked) | -2.573
Cc1ccccc1C(=O)N1CCC(n2nnc3cc(F)ccc32)CC1 | -6.344
CNCCc1nc2cc(F)ccc2[nH]1.Cl.Cl | 15.88
CC(C)c1nc(C2CCCN2Cc2nnc(C3CCC3)o2)no1 (centres unmarked) | 18.32
COCCC(=O)N1CCC(c2ccc3c(NC(C)C)n[nH]c3n2)C1 (centres unmarked) | 20.95
CN(C)c1ccc(CC(=O)N[C@@H]2CCNC[C@H]2O)cc1 | -8.997
COC1CCN(C(=O)Cc2csc(-c3ccc(F)cc3)n2)CC1 | -0.0331
CC(Cn1ccnc1)NC(=O)N(C)Cc1ccc2c(c1)OCCO2 (centres unmarked) | -35.44 & -26.79 & 10.4
CN(Cc1cccc(C(N)=O)c1)CC1CCCN1c1cccnn1 (centres unmarked) | -0.03401
Cc1cc(CN(C)C(=O)NCC(C)N2CCc3ccccc32)no1 (centres unmarked) | -17.78
CC(C)NC(=O)N1CCC2(C1)CN(c1ccsc1)C(=O)CN2C.O=C(O)C(F)(F)F (centres unmarked) | -3.468
COc1c(CNC2CCN(C(=O)C3CC3)CC2)c(C(C)C)nn1C | -4.971
Cc1csc(N2CCN(C(=O)Cc3ccc(C)s3)CC2)n1 | 0
[H][C@@]12CCN(C(=O)c3cscn3)[C@]1([H])CN(C(=O)c1ccsc1)C2 | 13.69
CC(=O)N1CCC2(CC1)CC(N1CCOCC1)c1ccc(C)cc12.O=C(O)C(F)(F)F (centres unmarked) | -3.375
[H][C@@]12CN(Cc3ccccc3Cl)CC[C@]1([H])N(C(C)=O)C[C@H]2c1ccsc1 | 3.81
Cc1c(NC(C)C(C)C)cccc1C(=O)NCc1ccnn1C (centres unmarked) | 7.314
O=C(Cc1ccc(F)cc1)N1CCn2c(Cn3cncn3)cnc2C1 | 8.505
COc1cc(CCC(=O)NCC2CC2)ccc1OCC(F)(F)F | -17.86
O=C(O)C(F)(F)F.O=C(O)C(F)(F)F.O=C(c1cccnc1)N1CCn2cc(CN3CCCC3)nc2C1 | 1.632
[H][C@@]12C[C@@H](OC)C[C@]1([H])CN(C(=O)c1cc(F)ccc1OC)C2 | 4.856
Cc1ccc(S(=O)(=O)Nc2ccc(N3CCSCC3)c(C(=O)O)c2)s1 | -1.93
CC(C)CN1CCCn2nc(CNC(=O)c3cccnc3O)cc2C1 | 8.369
Cc1ccc(CN2CCc3nnc(COCCN(C)C)n3CC2)o1.O=C(O)C(F)(F)F.O=C(O)C(F)(F)F | 2.698
O=C(COc1cccc(Cl)c1)N1CCOCC(O)(CN2CCCC2)C1 (centres unmarked) | -1.817
Cc1cc(C)n(C2CN(CC(O)c3ccc(S(C)(=O)=O)cc3)C2)n1 (centres unmarked) | 13.93
Cc1noc([C@@H]2CCCN2C(=O)C2CCN(C(=O)C3CCC3)CC2)n1 | 0.1181
O=C(O)C1(Oc2ccc3ccccc3c2)CCN(c2ccncc2)CC1 | 10.96
[H][C@]12CCC[C@@]1(COCc1cccnc1)CN(C(=O)Cc1ccco1)C2 | 2.981
Cc1cc(Nc2ccccn2)nc(C2CCCN(CCO)C2)n1.O=CO (centres unmarked) | 9.991
CN(Cc1cccc(Cl)c1)Cc1nnsc1Cl | -2.743
CCCc1nc(C)c(C(=O)NS(=O)(=O)c2ccc(C#N)cc2)s1 | 2.235
COc1ccc2[nH]cc(C(=O)N3CC[C@H](CO)[C@@H](O)C3)c(=O)c2c1 | -7.607
O=C(c1ccc2nccnc2c1)N1C[C@@H](CN2CCCC2)[C@@H](CO)C1 | -41.91 & -32.67
COCc1ccccc1C(=O)NCCCN1CCCC1C(=O)N(C)C (centres unmarked) | 11.92
CC(C#N)CSc1ccccc1NCC(=O)NCc1ccccc1 (centres unmarked) | 0.5903
O=C(Nc1ccc(F)c(-n2cccc2)c1)NC1(CCO)CCOCC1 | 0.5562
Cc1occc1-c1nnc2n1NC(N)=C(C#N)S2 | 10.08
CC(=O)NC[C@]1(O)CCN(C(=O)c2ccc(C)c(F)c2)C[C@H]1O | -3.849
O=C(c1ccc(O)c(Cl)c1)N1C[C@@H](CN2CCCCCC2)[C@@H](CO)C1 | -22.19 & -21.86
O=C(NCCc1ccccc1)c1cn(CCNCc2cccnc2)nn1 | 6.689
O=C(O)C(F)(F)F.O=C(O)C(F)(F)F.O=C(O)C(F)(F)F.[H][C@@]12C[C@@H](Oc3cccnc3)CN1CCN(C(=O)c1ccc(C)nc1)C2 | -26.36
O=C(O)C(F)(F)F.[H][C@]12CCC[C@@]1(COc1ccccn1)CN(C(=O)C1CCOCC1)C2 | -3.65
Cc1ccc2c(C)c(C(=O)NCCc3csc(N)n3)oc2c1 | -12.62
CC1CN(Cc2cnn(C)c2)CCN1c1ccc2nncn2n1 (centres unmarked) | 35.83 & 39.82 & 36.65
CCOC1COC2(CCN(c3ccccn3)CC2)C1.O=C(O)C(F)(F)F (centres unmarked) | 12.48
O=C(NCC1CCCO1)c1cc(-c2cccnc2)c2cnccc2n1 (centres unmarked) | 13.42
CN(C)CCCn1ccnc1C1CCCN(c2cc(N)ncn2)C1 (centres unmarked) | 6.549
COc1ccsc1C(=O)N1CCCN(Cc2cscn2)CC1 | 1.735
CCN(CC)c1ccc(CNC(=O)C2(C)CCOCC2)cc1F | -0.7769

For reference, 6 entries once more:

- Cc1cc(C)n(C2CN(CC(O)c3ccc(S(C)(=O)=O)cc3)C2)n1 (centres unmarked) | 13.93%
- O=C(Cc1ccc(F)cc1)N1CCn2c(Cn3cncn3)cnc2C1 | 8.505%
- O=C(O)C(F)(F)F.[H][C@@]12CCN(S(C)(=O)=O)[C@@]1([H])CCN2Cc1ccc2c(c1)OCO2 | -6.33%
- CCN(CC)c1ccc(CNC(=O)C2(C)CCOCC2)cc1F | -0.7769%
- O=C(CCNS(=O)(=O)c1ccccc1)NCc1ccoc1 | -2.361%
- Cc1ccc(CN2CCc3nnc(COCCN(C)C)n3CC2)o1.O=C(O)C(F)(F)F.O=C(O)C(F)(F)F | 2.698%

Data taken from ChEMBL document CHEMBL3988442, “University of Dundee, Small-Polar-MMV Screening Library” (2021).